Laboratory results from article PMC11306101.
Results are given in words; binding and its absence hold for the method and conditions named. Binding seen in cells or lysates may run through a third protein. Some entries that bind do so weakly or less than the wild type. For some assays here: Where a sequence is shown, tags or fusion partners need not be part of it.

Protein sequences, listed by entry. Tags and fused reporters are not part of them. Lines headed by an entry give the natural chain unless they say otherwise; changes in a name come on top. Chains listed by the source or under a name are the forms on record and can include a tag or linker.
UniProt Q92956: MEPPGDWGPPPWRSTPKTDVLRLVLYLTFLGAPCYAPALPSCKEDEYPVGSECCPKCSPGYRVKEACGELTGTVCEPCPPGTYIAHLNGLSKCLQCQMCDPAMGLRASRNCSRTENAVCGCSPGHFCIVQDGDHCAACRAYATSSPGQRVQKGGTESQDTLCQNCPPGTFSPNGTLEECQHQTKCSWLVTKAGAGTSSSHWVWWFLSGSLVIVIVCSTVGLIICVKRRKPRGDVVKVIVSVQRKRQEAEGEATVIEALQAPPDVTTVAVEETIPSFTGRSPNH
UniProt Q8IYR6: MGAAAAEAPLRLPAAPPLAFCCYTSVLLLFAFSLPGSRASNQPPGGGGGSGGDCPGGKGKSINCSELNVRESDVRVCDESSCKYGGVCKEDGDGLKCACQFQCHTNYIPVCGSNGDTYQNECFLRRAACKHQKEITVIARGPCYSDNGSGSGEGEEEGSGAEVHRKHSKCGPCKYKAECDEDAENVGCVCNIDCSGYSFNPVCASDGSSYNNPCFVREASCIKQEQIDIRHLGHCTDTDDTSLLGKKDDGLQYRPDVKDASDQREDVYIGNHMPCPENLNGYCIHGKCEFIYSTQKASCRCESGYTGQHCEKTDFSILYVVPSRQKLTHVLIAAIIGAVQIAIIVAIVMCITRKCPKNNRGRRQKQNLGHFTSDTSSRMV
TMEFF1 Ala297Val (gnomAD homozygous variant), untagged (Q8IYR6, form named): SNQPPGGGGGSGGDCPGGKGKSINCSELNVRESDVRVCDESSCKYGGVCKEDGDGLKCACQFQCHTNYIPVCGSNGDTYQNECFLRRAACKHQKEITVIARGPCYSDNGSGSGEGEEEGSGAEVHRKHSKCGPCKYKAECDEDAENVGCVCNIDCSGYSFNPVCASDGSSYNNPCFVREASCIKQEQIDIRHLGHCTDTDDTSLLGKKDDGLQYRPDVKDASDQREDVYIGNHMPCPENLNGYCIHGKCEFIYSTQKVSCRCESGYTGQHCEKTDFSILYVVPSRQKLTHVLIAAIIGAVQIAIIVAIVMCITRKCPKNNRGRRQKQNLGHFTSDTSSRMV
TMEFF1 Glu134Val (gnomAD homozygous variant), untagged (Q8IYR6, form named): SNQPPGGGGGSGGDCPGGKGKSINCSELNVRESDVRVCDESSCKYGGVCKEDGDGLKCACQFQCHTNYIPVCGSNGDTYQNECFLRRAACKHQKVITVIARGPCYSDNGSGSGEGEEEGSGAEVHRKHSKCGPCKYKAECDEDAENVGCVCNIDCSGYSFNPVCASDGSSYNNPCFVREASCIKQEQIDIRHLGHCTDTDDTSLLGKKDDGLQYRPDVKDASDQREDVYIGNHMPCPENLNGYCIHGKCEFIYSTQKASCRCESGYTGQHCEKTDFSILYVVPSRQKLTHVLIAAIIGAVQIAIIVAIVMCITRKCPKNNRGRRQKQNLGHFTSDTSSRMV
TMEFF1 Gly281Val (gnomAD homozygous variant), untagged (Q8IYR6, form named): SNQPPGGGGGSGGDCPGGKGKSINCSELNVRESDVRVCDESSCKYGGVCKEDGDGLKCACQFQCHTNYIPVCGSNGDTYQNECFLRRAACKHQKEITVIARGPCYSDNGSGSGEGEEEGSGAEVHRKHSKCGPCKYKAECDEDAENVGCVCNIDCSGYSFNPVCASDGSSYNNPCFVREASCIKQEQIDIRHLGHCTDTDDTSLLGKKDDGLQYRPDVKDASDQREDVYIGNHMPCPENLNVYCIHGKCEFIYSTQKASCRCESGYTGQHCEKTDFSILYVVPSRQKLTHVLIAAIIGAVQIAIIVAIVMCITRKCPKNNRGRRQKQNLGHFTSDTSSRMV
TMEFF1 His104Tyr (gnomAD homozygous variant), untagged (Q8IYR6, form named): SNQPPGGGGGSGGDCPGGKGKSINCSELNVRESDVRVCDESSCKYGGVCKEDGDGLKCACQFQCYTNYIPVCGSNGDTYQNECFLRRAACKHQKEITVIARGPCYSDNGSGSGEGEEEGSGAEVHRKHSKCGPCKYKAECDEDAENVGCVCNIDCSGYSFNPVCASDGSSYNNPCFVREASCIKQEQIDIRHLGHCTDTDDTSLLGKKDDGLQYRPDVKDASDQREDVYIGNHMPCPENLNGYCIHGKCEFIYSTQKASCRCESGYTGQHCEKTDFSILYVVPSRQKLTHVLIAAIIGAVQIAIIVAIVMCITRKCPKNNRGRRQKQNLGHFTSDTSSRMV
TMEFF1 Ile284Phe (gnomAD homozygous variant), untagged (Q8IYR6, form named): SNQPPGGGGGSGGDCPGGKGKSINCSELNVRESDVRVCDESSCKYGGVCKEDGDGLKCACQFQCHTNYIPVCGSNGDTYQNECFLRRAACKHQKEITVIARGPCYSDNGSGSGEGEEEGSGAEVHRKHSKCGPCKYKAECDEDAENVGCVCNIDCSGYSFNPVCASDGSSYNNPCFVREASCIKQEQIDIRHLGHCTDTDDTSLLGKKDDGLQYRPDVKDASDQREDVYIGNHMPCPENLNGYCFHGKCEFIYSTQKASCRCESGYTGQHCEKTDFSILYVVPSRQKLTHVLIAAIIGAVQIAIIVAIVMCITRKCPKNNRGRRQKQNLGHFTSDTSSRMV
TMEFF1 Ile344Val (gnomAD homozygous variant), untagged (Q8IYR6, form named): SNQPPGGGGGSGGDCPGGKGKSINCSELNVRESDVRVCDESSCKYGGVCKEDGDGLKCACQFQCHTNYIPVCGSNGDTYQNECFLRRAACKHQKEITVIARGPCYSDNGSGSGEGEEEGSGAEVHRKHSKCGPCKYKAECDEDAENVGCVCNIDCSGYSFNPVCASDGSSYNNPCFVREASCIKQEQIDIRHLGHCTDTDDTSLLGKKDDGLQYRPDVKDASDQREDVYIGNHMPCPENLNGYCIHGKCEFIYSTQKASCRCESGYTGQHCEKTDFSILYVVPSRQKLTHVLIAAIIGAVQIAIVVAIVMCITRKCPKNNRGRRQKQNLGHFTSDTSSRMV
TMEFF1 P2-M1, p.Lys354–Arg360del, untagged (Q8IYR6, form named): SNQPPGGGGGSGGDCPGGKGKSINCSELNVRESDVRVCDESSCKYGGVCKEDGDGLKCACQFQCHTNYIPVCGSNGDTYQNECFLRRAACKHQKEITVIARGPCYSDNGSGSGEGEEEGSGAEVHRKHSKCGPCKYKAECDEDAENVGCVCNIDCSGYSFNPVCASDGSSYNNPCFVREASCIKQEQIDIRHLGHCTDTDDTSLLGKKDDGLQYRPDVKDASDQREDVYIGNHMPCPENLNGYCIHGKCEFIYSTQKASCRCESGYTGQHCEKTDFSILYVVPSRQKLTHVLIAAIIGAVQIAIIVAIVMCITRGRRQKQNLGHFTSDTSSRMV
TMEFF1 Pro255Ser (gnomAD homozygous variant), untagged (Q8IYR6, form named): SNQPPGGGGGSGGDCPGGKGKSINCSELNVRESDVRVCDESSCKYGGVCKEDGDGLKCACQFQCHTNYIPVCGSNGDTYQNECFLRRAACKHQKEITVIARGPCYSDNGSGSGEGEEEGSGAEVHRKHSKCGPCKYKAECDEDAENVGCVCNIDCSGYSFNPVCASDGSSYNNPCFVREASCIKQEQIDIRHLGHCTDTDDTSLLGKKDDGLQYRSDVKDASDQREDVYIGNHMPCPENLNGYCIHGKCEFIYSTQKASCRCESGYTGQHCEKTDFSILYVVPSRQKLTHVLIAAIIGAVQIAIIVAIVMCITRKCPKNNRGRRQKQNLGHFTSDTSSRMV
TMEFF1 p.Pro44Ala (P1's variant), untagged (Q8IYR6, form named): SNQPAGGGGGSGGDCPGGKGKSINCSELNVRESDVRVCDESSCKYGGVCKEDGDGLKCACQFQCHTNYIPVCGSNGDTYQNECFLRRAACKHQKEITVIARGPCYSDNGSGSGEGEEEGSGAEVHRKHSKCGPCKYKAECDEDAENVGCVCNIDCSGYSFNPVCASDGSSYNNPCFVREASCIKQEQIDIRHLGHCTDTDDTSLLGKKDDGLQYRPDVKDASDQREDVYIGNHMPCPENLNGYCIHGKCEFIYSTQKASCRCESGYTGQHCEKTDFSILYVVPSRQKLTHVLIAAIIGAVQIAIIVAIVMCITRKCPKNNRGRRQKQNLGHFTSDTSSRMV

What was measured:
[1] = target: T1, N-terminal Flag-tagged WT full-length NECTIN-1 (human) (UniProt Q15223); assay: co-IP; HEK293T cotransfected with 2 µg of each plasmid, 36–48 h; IP buffer 1.0% Triton X-100, 10% glycerol, 100 mM Tris-HCl pH 7.4, 1 mM EDTA, 75 mM NaCl; IP overnight at 4 °C with anti-TMEFF1 antibody plus protein G magnetic beads, anti-Flag M2 agarose or anti-Myc agarose; immunoblot
T1 sequence: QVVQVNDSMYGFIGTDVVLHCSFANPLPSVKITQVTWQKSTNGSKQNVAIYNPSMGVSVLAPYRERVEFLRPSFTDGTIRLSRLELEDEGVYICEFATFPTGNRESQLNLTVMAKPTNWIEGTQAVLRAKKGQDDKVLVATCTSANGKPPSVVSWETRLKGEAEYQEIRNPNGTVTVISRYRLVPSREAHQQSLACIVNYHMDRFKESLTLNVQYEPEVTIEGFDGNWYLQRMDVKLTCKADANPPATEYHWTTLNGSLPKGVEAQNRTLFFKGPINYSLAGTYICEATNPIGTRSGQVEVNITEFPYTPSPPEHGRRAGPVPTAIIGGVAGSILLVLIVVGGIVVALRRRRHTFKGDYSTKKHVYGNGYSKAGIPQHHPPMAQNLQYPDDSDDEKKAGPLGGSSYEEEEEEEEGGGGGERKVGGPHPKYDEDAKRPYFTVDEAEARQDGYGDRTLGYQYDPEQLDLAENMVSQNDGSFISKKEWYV

[2] = target: T2, YFP-tagged NECTIN-1 (human) (UniProt Q15223); assay: FRET or BRET; HeLa cells cotransfected with CFP-tagged TMEFF1 and YFP-tagged NECTIN-1 or HVEM; FRET imaging, bleed-through-corrected FRET quantified at the cell surface
T2 sequence: T1 sequence

YFP-tagged HVEM = YFP-tagged HVEM (UniProt Q92956); assay: as above
[3] = target: T3, N-terminal Flag-tagged NECTIN-1 extracellular domain (EX) (human) (UniProt Q15223); assay: co-IP; HEK293T cotransfected with 2 µg of each plasmid, 36–48 h; IP buffer 1.0% Triton X-100, 10% glycerol, 100 mM Tris-HCl pH 7.4, 1 mM EDTA, 75 mM NaCl; IP overnight at 4 °C with anti-TMEFF1 antibody plus protein G magnetic beads, anti-Flag M2 agarose or anti-Myc agarose; immunoblot
T3 sequence: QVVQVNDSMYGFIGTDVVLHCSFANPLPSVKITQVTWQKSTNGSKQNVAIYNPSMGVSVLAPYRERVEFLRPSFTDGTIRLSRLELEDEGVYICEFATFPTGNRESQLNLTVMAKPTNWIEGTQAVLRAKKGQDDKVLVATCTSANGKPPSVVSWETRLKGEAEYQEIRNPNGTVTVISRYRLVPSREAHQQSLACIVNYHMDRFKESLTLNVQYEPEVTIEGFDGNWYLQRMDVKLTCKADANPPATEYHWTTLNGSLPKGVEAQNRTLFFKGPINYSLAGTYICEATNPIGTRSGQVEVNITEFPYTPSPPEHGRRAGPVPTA

[4] = target: T4, N-terminal Flag–GFP-tagged full-length NECTIN-1 (human) (UniProt Q15223); assay: as above
T4 sequence: T1 sequence

[5] = target: T5, N-terminal Flag–GFP-tagged NECTIN-1 extracellular domain (EX) (human) (UniProt Q15223); assay: as above
T5 sequence: T3 sequence

[6] = target: T6, cell-endogenous NECTIN-1 of HEK293T cells (human (endogenous in HEK293T)) (UniProt Q15223); assay: co-IP; endogenous proteins of HEK293T cells, with or without HSV-1 infection (MOI 1); IP with anti-NECTIN-1 antibody or mouse IgG isotype control; immunoblot with anti-NECTIN-1 or anti-TMEFF1
T6 sequence: T1 sequence

Substance | binding [1] | also measured
C-terminal Myc-tagged TMEFF1 extracellular domain (EX) (from UniProt Q8IYR6 40-330) (domain or fragment) | binds | 
CFP-tagged TMEFF1 (from UniProt Q8IYR6 40-380) |  | binding [2]: binds; binding (YFP-tagged HVEM): no binding
N-terminal Myc-tagged TMEFF1 extracellular domain (EX) (from UniProt Q8IYR6 40-330) (domain or fragment) | binds | binding [3]: binds
N-terminal Myc-tagged WT full-length TMEFF1 (from UniProt Q8IYR6 40-380) | binds | binding [4]: binds; binding [3]: binds; binding [5]: binds
TMEFF1 (tomoregulin-1), wild type, untagged (from UniProt Q8IYR6 40-380) | binds | 
TMEFF1 Ile284Phe (gnomAD homozygous variant), untagged (from UniProt Q8IYR6 40-380) | binds | 
TMEFF1 Ile344Val (gnomAD homozygous variant), untagged (from UniProt Q8IYR6 40-380) | binds | 
TMEFF1 P2-M1, p.Lys354–Arg360del, untagged (from UniProt Q8IYR6 40-380) | binds | 
TMEFF1 p.Pro44Ala (P1's variant), untagged (from UniProt Q8IYR6 40-380) | binds | 
cell-endogenous TMEFF1 of HEK293T cells (from UniProt Q8IYR6 40-380) |  | binding [6]: binds

Further lines, with some results ahead:

binding [1] | Substance | also measured
binds | TMEFF1 Ala297Val (gnomAD homozygous variant), untagged (from UniProt Q8IYR6 40-380) | 
binds | TMEFF1 Glu134Val (gnomAD homozygous variant), untagged (from UniProt Q8IYR6 40-380) | 
binds | TMEFF1 Gly281Val (gnomAD homozygous variant), untagged (from UniProt Q8IYR6 40-380) | 
binds | TMEFF1 His104Tyr (gnomAD homozygous variant), untagged (from UniProt Q8IYR6 40-380) | 
binds | TMEFF1 Pro255Ser (gnomAD homozygous variant), untagged (from UniProt Q8IYR6 40-380) | 
